Results as given in PMC12667509, “Inhibition of Macrophage ARID3A Alleviates Myocardial Ischemia‐Reperfusion Injury After Heart Transplantation by Reducing THBS1/CD47 Signaling‐Mediated Neutrophil Extracellular Traps Formation” (Advanced Science, 2025).
These are yes or no findings as the source states them, for the method shown. Binding seen in cells or lysates may run through a third protein. Some binding calls cover weakened binding; strength is not graded here.

Chains of the proteins cited; added tags and fusions are not shown. Residues count along the entry.
UniProt P35441, residues 19-1170: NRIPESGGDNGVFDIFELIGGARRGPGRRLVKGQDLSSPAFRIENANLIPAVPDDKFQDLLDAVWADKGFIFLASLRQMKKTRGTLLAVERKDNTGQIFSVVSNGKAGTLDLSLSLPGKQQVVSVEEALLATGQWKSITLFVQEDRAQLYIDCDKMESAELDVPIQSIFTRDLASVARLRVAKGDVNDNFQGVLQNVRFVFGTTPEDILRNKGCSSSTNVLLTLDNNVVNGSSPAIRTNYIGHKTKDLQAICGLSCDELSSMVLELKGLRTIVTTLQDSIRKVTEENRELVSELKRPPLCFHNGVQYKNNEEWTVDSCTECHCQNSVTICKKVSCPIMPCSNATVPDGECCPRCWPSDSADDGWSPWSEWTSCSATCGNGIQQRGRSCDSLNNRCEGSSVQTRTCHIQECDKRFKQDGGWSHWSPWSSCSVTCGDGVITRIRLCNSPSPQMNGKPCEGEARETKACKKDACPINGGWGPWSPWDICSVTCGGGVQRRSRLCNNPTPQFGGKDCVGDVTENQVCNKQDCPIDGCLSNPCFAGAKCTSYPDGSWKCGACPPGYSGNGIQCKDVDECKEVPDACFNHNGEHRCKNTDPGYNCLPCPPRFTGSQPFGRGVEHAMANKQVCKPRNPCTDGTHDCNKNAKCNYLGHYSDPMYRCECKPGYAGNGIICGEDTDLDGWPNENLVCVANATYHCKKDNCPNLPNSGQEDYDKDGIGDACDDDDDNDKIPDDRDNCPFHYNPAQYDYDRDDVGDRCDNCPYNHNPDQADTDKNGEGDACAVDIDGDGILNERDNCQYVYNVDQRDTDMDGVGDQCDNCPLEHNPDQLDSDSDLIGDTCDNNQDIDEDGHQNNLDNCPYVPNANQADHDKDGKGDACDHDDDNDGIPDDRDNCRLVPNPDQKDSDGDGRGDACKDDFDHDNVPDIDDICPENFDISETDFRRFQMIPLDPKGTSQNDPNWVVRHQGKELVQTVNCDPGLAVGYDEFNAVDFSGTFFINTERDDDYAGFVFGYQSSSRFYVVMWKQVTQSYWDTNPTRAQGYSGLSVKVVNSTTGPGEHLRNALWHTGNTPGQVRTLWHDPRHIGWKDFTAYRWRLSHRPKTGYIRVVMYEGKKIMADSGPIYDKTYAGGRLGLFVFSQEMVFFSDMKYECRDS

Target: T1, CD47 (mouse (endogenous in myocardial tissue)) (UniProt Q61735)
T1 sequence: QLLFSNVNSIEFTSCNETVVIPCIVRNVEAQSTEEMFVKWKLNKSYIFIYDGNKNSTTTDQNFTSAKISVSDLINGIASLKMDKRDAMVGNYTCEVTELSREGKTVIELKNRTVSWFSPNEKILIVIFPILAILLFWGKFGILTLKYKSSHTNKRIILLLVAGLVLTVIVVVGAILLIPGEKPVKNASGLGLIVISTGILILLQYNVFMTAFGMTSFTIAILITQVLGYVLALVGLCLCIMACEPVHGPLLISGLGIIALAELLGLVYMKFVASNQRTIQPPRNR
Experiment: co-IP; endogenous proteins in lysates of mouse myocardial tissue (Con: 0.5 h and IR: 8 h cold ischemia, 24 h after heart transplantation); antibody-conjugated protein A/G magnetic beads, western blotting; isotype IgG as negative control; which of the two was precipitated is not stated

binding: binds
Substance: thrombospondin-1 (THBS1) (from UniProt P35441 19-1170) (ligand)
